This assay concerns the target Dbp6 expressed in yeast as HA-Dbp6 and as Dbp6-ZZ (S. cerevisiae) (UniProt P53734). In words: co-IP; immunoprecipitation of Dbp6-ZZ with IgG-sepharose from extracts of a yeast strain expressing HA-Dbp6 and ZZ-tagged Dbp6, in the presence of RNase; western blot.

No constants are given. Whether binding was seen depends on the method and setting. Binding seen in cells or lysates may run through a third protein. Some binding calls cover weakened binding; strength is not graded here. Tags and fused reporters may be left off the sequences shown.

B1: Dbp6 expressed in yeast as HA-Dbp6 and as Dbp6-ZZ (enzyme, S. cerevisiae, UniProt P53734 1-629, looked up)
chain: MFASRFDPSQLTAPAASAPEGIVGTTPPAIVPLKRQATESDNEEYGSHQDSDESSNSSSEEDEDRMQVDYGASEEDSSEVEEEESKPSTHSTVLSRFKQTVSLQERLGASDIAESKEDEGIEDEAASTHQLKQIPQPEFVKNPMNLNTNSLQFKSTGWLNTEKIYYDNSLIKPFSDYANELEAKLLQNICKNFSTNTFPIQSIILDSILPVLNFTLNVSKRNFTRRIGDILVNAATGSGKTLAYSIPIVQTLFKRQINRLRCIIIVPTKLLINQVYTTLTKLTQGTSLIVSIAKLENSLKDEHKKLSNLEPDILITTPGRLVDHLNMKSINLKNLKFLIIDEADRLLNQSFQGWCPKLMSHLKTDKLDTLPGNVIKMIFSATLTTNTEKLNGLNLYKPKLFLKQTDKLYQLPNKLNEFNINIPTAKSVYKPLILLYSICQFMAHSPIAAKILIFVKSNESSIRLSKLLQLICESRSQSSVLKNLQNLAVSINSVNSNNSKAENKKIVANFSHHSESAGITILITTDIMSRGIDINDITQVINYDPPMSSQQYVHRVGRTARANELGSAYNLLVGRGERTFFDDLNKDLDRDGKSVQPLELDFTLLESDSELYTSSLESLKNYHNNTAQA
notes: DEAD-box protein Dbp6 of yeast (S. cerevisiae); HA-tagged ORF under the GAL1-10 promoter and wild-type DBP6 cassette in pHA113 between a GAR1 promoter and a ZZ tag; also called ZZ-tagged Dbp6; GAL::HA-DBP6; source: yeast strain expressing HA-Dbp6 as well as ZZ-tagged Dbp6, in extract
For the molecule B1, the binding result is “binds weakly”.
